From US4041168A, “Nitroimidazole derivative with antibacterial activity” (Gruppo Lepetit S.p.A., priority 1975, dated 1977)

System: Trichomonas vaginalis
Assay: in vivo activity against experimental infection in mice caused by Trichomonas vaginalis (ED50, Therapeutical Index)
Settings: for ΔTI (difference between Therapeutical Index of the 5-hydroxyalkyl and the corresponding 5-alkyl compound): Table 2, 5-hydroxyalkyl minus 5-alkyl compound of the pair; for ΔTI (difference between Therapeutical Indexes of compounds K and A and compounds F and B): Table 3, K minus F, A minus B
Description: This activity, expressed as an ED50 value, is moreover coupled with a very low toxicity, expressed as an LD50 value, which was determined substantially according to the method described by Lichtfield and Wilcoxon, Journ. Pharm. Exp. Ther., 96, 99, 1949. In representative experiments, the following results have been obtained:
which indicate that the compound of the invention is a very useful and promising anti-Trichomonas agent. This becomes even more evident if one considers its Therapeutical Index (TI). Said parameter, which is mathematically expressed by the following ratio LD50 /ED50 gives a reliable idea about the safety of a drug and, considering how it is calculated, it is clear that the higher the TI, the safer the drug is; a high value of the Therapeutical Index means in fact a low effective dose (ED50) in comparison with the lethal dose (LD50). […] As an example, the 5-isopropyl-1-methyl-2-nitroimidazole, described in U.S. Pat. No. 3,499,967 and therein mentioned as one of the most outstanding in vivo active 2-nitroimidazoles against Trichomonas vaginalis, has a Therapeutical Index of 102.
1. In the present experiment there are compared the anti-Trichomonas in vivo activities and the Therapeutical Indexes (TI) of the compound of the invention (hereinafter referred to as compound A) and four 5-hydroxy alkyl-2-nitroimidazoles described or falling within prior art patents. In these four compounds the hydroxy group is bound to a primary or secondary carbon atom which not necessarily is linked to the imidazole nucleus.
2. In the following set of experiments there are evaluated the variations of Therapeutical Index (positive or negative) which are observed when some 5-alkyl-2 -nitroimidazoles known from the prior art are compared with the corresponding 5-hydroxyalkyl-2-nitroimidazoles, including the new compound A. Obviously all of the compounds are tested for their in vivo activity against Trichomonas vaginalis. […] With reference to the hereinbelow reported table and the first four pair of compounds, the results clearly indicate that the variations of Therapeutical Index which are observed are slightly positive or even negative i.e., that the Therapeutical Index of the known 5-hydroxyalkyl-2-nitroimidazoles either is worse than or is substantially the same as that of the corresponding 5-alkyl compounds: this practically means that no appreciable therapeutical results have been obtained, and that, considering the last pair of substances i.e., compound K and compound A (the compound of the invention), an unrelevant or unfavorable variation of the Therapeutical Index would have to be expected as well. On the contrary, a dramatically favorable and unpredictable variation of this parameter is observed and, clearly, this effect is to be interpreted as a remarkable improvement of the therapeutical (anti-Trichomonas) properties:
3. In the third experiment there are evaluated the effects on the Therapeutical Index of the substitution with two methyl groups of two hydrogen atoms of the methyl radical at the 5-position of compound F namely [drawing 17] in comparison with the effects on the same parameter caused by the substitution with two methyl groups of the two hydrogen atoms of the hydroxymethyl group of compound B, namely [drawing 18] The compounds are obviously tested for their anti-Trichomonas in vivo properties.

Cn1c(CO)cnc1[N+](=O)[O-] [drawing 8]
ΔTI (difference between Therapeutical Index of the 5-hydroxyalkyl and the corresponding 5-alkyl compound): +5.4

Cn1c(CCO)cnc1[N+](=O)[O-] [drawing 10]
ΔTI (difference between Therapeutical Index of the 5-hydroxyalkyl and the corresponding 5-alkyl compound): +5

CC(O)Cc1cnc([N+](=O)[O-])n1C (stereo not shown) [drawing 12]
ΔTI (difference between Therapeutical Index of the 5-hydroxyalkyl and the corresponding 5-alkyl compound): +17.8

CC(CO)c1cnc([N+](=O)[O-])n1C (stereo not shown) [drawing 14]
ΔTI (difference between Therapeutical Index of the 5-hydroxyalkyl and the corresponding 5-alkyl compound): -63.2

Cn1c(C(C)(C)O)cnc1[N+](=O)[O-] [drawing 16]
ΔTI (difference between Therapeutical Index of the 5-hydroxyalkyl and the corresponding 5-alkyl compound): +215

CC(C)c1cnc([N+](=O)[O-])n1C [drawing 21]
ΔTI (difference between Therapeutical Indexes of compounds K and A and compounds F and B): 78.6

Cn1c(C(C)(C)O)cnc1[N+](=O)[O-] [drawing 23]
ΔTI (difference between Therapeutical Indexes of compounds K and A and compounds F and B): 292.2
